Results are given in words; binding and its absence hold for the method and conditions named. In cells and extracts the contact can be indirect. Some entries that bind do so weakly or less than the wild type.
Molecular target: T1, Liver X Receptor α (human (endogenous in SK-N-MC)) (UniProt Q13133)
T1 sequence: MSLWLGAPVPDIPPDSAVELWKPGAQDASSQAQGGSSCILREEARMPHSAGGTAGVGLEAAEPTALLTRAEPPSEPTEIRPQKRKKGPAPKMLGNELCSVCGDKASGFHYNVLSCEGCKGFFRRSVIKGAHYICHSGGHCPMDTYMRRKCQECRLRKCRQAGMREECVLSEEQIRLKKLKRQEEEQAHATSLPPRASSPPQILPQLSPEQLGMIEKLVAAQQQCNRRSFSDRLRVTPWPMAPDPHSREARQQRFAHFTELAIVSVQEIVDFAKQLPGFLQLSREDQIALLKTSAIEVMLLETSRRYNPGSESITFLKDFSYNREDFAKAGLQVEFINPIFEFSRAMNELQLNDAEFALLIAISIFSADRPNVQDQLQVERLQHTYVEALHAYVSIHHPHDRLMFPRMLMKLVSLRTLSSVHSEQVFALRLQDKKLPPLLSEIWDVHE
Experiment: co-IP; immunoprecipitation of endogenous proteins from cells with or without high glucose (D-glucose) treatment; which protein was precipitated is not given

Amino acid sequences for entries named in this document (tags omitted).
UniProt P19793: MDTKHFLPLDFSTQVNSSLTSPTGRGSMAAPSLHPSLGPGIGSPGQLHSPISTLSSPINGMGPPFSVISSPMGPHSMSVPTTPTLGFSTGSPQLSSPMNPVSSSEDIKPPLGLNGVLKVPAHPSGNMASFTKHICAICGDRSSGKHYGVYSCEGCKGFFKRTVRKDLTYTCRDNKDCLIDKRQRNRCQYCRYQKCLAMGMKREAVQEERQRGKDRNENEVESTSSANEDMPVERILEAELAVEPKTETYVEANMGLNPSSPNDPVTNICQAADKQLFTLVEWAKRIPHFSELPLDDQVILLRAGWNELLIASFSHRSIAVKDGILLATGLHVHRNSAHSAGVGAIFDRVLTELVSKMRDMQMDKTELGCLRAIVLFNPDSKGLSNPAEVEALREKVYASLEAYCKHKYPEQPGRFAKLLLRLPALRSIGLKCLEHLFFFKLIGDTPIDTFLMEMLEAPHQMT

retinoid X receptor α (from UniProt P19793 1-462)
binding: binds

— publication PMC5103190
